Patent US12102089B2, “Method for inactivating mold spores” (DSM IP ASSETS B.V., priority 2017, dated 2024)
This continues a long series; more values of the same kind are listed elsewhere.

Test system: Talaromyces emersonii (CBS 236.58)
Assay: Heat treatment of Talaromyces emersonii spores in ice tea with natamycin, visual growth
Assay type: cell-based
Parameters: key: growth (+); no growth (−)
Method: Commercially available ice tea (Lipton, peach flavor, non-carbonated, 1.5 L) was adjusted to high water hardness by adding 1 ml of a solution of 39 g CaCl2 and 27 g MgCl2 added to 934 g water. ⅓ of this ice tea preparation (the pH of which was 3.15) was left as-such, ⅓ of the preparation was enriched with 5 ppm natamycin and ⅓ of the preparation was enriched with 10 ppm natamycin. Samples of 5 ml were made from each preparation in 15 ml sterile plastic tubes. Of each preparation 8 samples were pre-heated to the desired pasteurization temperature using a water bath. Temperatures used were RT, 60, 65, 70, 75, 80, 85 and 90° C. When the desired temperature was reached, 100 μl of a 2500 spores/ml spore suspension of Aspergillus niger ATCC 9029AA was added to each tube. Subsequently, the samples were kept for 30 seconds at the temperature in question in the water bath. Next, the samples were cooled on ice to a temperature of 25° C. Samples were incubated at 25° C. and visually examined for growth (formation of mold flakes or turbidity) for two months. Additionally, samples were enumerated according to ISO protocol 21527-1.2008 on day 0 (before heat treatment) and day 1 (after heat treatment) to count immediate loss of viability. […] For the results, see Table 1. […] Example 1 was repeated however with Talaromyces emersonii (CBS 236.58, 1000 spores/ml) instead of Aspergillus niger.

## C[C@@H]1C/C=C/C=C/C=C/C=C/[C@H](O[C@@H]2O[C@H](C)[C@@H](O)[C@H](N)[C@@H]2O)C[C@@H]2O[C@](O)(C[C@@H](O)C[C@H]3O[C@@H]3/C=C/C(=O)O1)C[C@H](O)[C@H]2C(=O)O [natamycin]
75°C, 5 ppm, day 1
  growth or no growth: −
75°C, 5 ppm, day 2
  growth or no growth: −
75°C, 5 ppm, day 3
  growth or no growth: −
75°C, 5 ppm, day 4
  growth or no growth: +
75°C, 5 ppm, day 5
  growth or no growth: +
75°C, 5 ppm, day 6
  growth or no growth: +
75°C, 5 ppm, day 7
  growth or no growth: +
75°C, 5 ppm, day 8
  growth or no growth: +
75°C, 5 ppm, day 11
  growth or no growth: +
75°C, 5 ppm, day 12
  growth or no growth: +
75°C, 5 ppm, day 13
  growth or no growth: +
75°C, 5 ppm, day 14
  growth or no growth: +
75°C, 10 ppm, day 1
  growth or no growth: −
75°C, 10 ppm, day 2
  growth or no growth: −
75°C, 10 ppm, day 3
  growth or no growth: −
75°C, 10 ppm, day 4
  growth or no growth: −
75°C, 10 ppm, day 5
  growth or no growth: −
75°C, 10 ppm, day 6
  growth or no growth: −
75°C, 10 ppm, day 7
  growth or no growth: −
75°C, 10 ppm, day 8
  growth or no growth: −
75°C, 10 ppm, day 9
  growth or no growth: −
75°C, 10 ppm, day 10
  growth or no growth: −
75°C, 10 ppm, day 11
  growth or no growth: −
75°C, 10 ppm, day 12
  growth or no growth: −
75°C, 10 ppm, day 13
  growth or no growth: −
75°C, 10 ppm, day 14
  growth or no growth: −
80°C, 5 ppm, day 1
  growth or no growth: −
80°C, 5 ppm, day 2
  growth or no growth: −
80°C, 5 ppm, day 3
  growth or no growth: −
80°C, 5 ppm, day 4
  growth or no growth: −
80°C, 5 ppm, day 5
  growth or no growth: −
80°C, 5 ppm, day 6
  growth or no growth: −
80°C, 5 ppm, day 7
  growth or no growth: −
80°C, 5 ppm, day 8
  growth or no growth: −
80°C, 5 ppm, day 9
  growth or no growth: −
80°C, 5 ppm, day 10
  growth or no growth: −
80°C, 5 ppm, day 11
  growth or no growth: −
80°C, 5 ppm, day 12
  growth or no growth: −
80°C, 5 ppm, day 13
  growth or no growth: −
80°C, 5 ppm, day 14
  growth or no growth: −
80°C, 10 ppm, day 1
  growth or no growth: −
80°C, 10 ppm, day 2
  growth or no growth: −
80°C, 10 ppm, day 3
  growth or no growth: −
80°C, 10 ppm, day 4
  growth or no growth: −
80°C, 10 ppm, day 5
  growth or no growth: −
80°C, 10 ppm, day 6
  growth or no growth: −
80°C, 10 ppm, day 7
  growth or no growth: −
80°C, 10 ppm, day 8
  growth or no growth: −
80°C, 10 ppm, day 9
  growth or no growth: −
80°C, 10 ppm, day 10
  growth or no growth: −
80°C, 10 ppm, day 11
  growth or no growth: −
80°C, 10 ppm, day 12
  growth or no growth: −
80°C, 10 ppm, day 13
  growth or no growth: −
80°C, 10 ppm, day 14
  growth or no growth: −
85°C, 5 ppm, day 1
  growth or no growth: −
85°C, 5 ppm, day 2
  growth or no growth: −
85°C, 5 ppm, day 3
  growth or no growth: −
85°C, 5 ppm, day 4
  growth or no growth: −
85°C, 5 ppm, day 5
  growth or no growth: −
85°C, 5 ppm, day 6
  growth or no growth: −
85°C, 5 ppm, day 7
  growth or no growth: −
85°C, 5 ppm, day 8
  growth or no growth: −
85°C, 5 ppm, day 9
  growth or no growth: −
85°C, 5 ppm, day 10
  growth or no growth: −
85°C, 5 ppm, day 11
  growth or no growth: −
85°C, 5 ppm, day 12
  growth or no growth: −
85°C, 5 ppm, day 13
  growth or no growth: −
85°C, 5 ppm, day 14
  growth or no growth: −
85°C, 10 ppm, day 1
  growth or no growth: −
85°C, 10 ppm, day 2
  growth or no growth: −
85°C, 10 ppm, day 3
  growth or no growth: −
85°C, 10 ppm, day 4
  growth or no growth: −
85°C, 10 ppm, day 5
  growth or no growth: −
85°C, 10 ppm, day 6
  growth or no growth: −
85°C, 10 ppm, day 7
  growth or no growth: −
85°C, 10 ppm, day 8
  growth or no growth: −
85°C, 10 ppm, day 9
  growth or no growth: −
85°C, 10 ppm, day 10
  growth or no growth: −
85°C, 10 ppm, day 11
  growth or no growth: −
85°C, 10 ppm, day 12
  growth or no growth: −
85°C, 10 ppm, day 13
  growth or no growth: −
85°C, 10 ppm, day 14
  growth or no growth: −
90°C, 5 ppm, day 1
  growth or no growth: −
90°C, 5 ppm, day 2
  growth or no growth: −
90°C, 5 ppm, day 3
  growth or no growth: −
90°C, 5 ppm, day 4
  growth or no growth: −
90°C, 5 ppm, day 5
  growth or no growth: −
90°C, 5 ppm, day 6
  growth or no growth: −
90°C, 5 ppm, day 7
  growth or no growth: −
90°C, 5 ppm, day 8
  growth or no growth: −
90°C, 5 ppm, day 9
  growth or no growth: −
90°C, 5 ppm, day 10
  growth or no growth: −
90°C, 5 ppm, day 11
  growth or no growth: −
90°C, 5 ppm, day 12
  growth or no growth: −
90°C, 5 ppm, day 13
  growth or no growth: −
90°C, 5 ppm, day 14
  growth or no growth: −
90°C, 10 ppm, day 1
  growth or no growth: −
90°C, 10 ppm, day 2
  growth or no growth: −
90°C, 10 ppm, day 3
  growth or no growth: −
90°C, 10 ppm, day 4
  growth or no growth: −
90°C, 10 ppm, day 5
  growth or no growth: −
90°C, 10 ppm, day 6
  growth or no growth: −
90°C, 10 ppm, day 7
  growth or no growth: −
90°C, 10 ppm, day 8
  growth or no growth: −
90°C, 10 ppm, day 9
  growth or no growth: −
90°C, 10 ppm, day 10
  growth or no growth: −
90°C, 10 ppm, day 11
  growth or no growth: −
90°C, 10 ppm, day 12
  growth or no growth: −
90°C, 10 ppm, day 13
  growth or no growth: −
90°C, 10 ppm, day 14
  growth or no growth: −
RT, 5 ppm, day 1
  growth or no growth: −
RT, 5 ppm, day 2
  growth or no growth: −
RT, 5 ppm, day 3
  growth or no growth: −
RT, 5 ppm, day 4
  growth or no growth: −
RT, 5 ppm, day 5
  growth or no growth: −
RT, 5 ppm, day 6
  growth or no growth: −
RT, 5 ppm, day 7
  growth or no growth: +
RT, 5 ppm, day 8
  growth or no growth: +
RT, 5 ppm, day 9
  growth or no growth: +
RT, 5 ppm, day 10
  growth or no growth: +
RT, 5 ppm, day 11
  growth or no growth: +
RT, 5 ppm, day 12
  growth or no growth: +
RT, 5 ppm, day 13
  growth or no growth: +
RT, 5 ppm, day 14
  growth or no growth: +
